From patent publication US20240009123A1, “MULTI-SUPPLEMENT DELIVERY SYSTEM” (priority 2022, published 2024)
Some entries share one result that the patent states for a list of compounds.

Experiment: Release of vitamins during tea bag steeping process (UV spectrophotometry)
Assay type: physicochemical
Conditions: 4° C.; for release of oil-soluble vitamins (up to): in 10 minutes; for release of water-soluble vitamins (up to): 10-min brewing period, pH 5

Compound | release of oil-soluble vitamins (up to) | release of water-soluble vitamins (up to)
CCCCCCCCCCCCCCCC(=O)OC/C=C(C)/C=C/C=C(C)/C=C/C1=C(C)CCCC1(C)C [VA, retinol palmitate] | 80-90% | –
Vitamin B12 [VB12] | – | 96%-99.9
Vitamin B6 [VB6] | – | 96%-99.9
tocopherols, mixed, FG [VE] | 80-90% | –
